Measurements reported in PubChem BioAssay AID1259254 (NCATS, 2017)
The deposit covers about 59,000 reagents; shown is a random part of them. Of all reagents, about 1,550 (2.6%) got an active call. 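G2 share is only a proxy for re-replication; each gene was hit by three separate siRNAs, and active genes were retested.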 The numbers tell different reagents against one gene apart. Further read-outs or replicates are left out here. No sequences are given here. The record does not give: the amount of reagent.

- Test: 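Genome-wide screen for genes that prevent DNA re-replication in cancer cells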 (primary screen)
- Cells: human HCT116 colorectal cancer cells
- Knock-down reagent: single siRNA against human genes
- Duration: 3 days
- Measurement: 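Nuclei stained with Hoechst and imaged; cell-cycle phase assigned by DNA content; G2 share scaled per plate, non-targeting siRNA 0%, GMNN siRNA 100%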
- Reading the numbers: G2 robust z-score: higher = more G2 cells, more excess DNA replication
- Hit rule: 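An siRNA counts as active if its G2 robust z-score lies at least 5 MADs above the screen median; here such calls match roughly 38% of GMNN control or more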

After knock-down of OR6V1 #1, the record shows G2 robust z-score 0.418; inactive. For OR6V1 #2, the entry reads G2 robust z-score 0.941; inactive. After knock-down of OR6V1 #3, the screen gave G2 robust z-score 0.331; inactive. Against ERO1B #1, the values are G2 robust z-score -0.634; inactive. With knock-down of ERO1B #2, the screen gave G2 robust z-score 0.74; inactive. Against ERO1B #3, the entry reads G2 robust z-score 0.129; inactive.

With knock-down of ZNF160 #1, the screen gave G2 robust z-score -0.343; inactive. ZNF160 #2 gave G2 robust z-score 0.971; inactive. For ZNF160 #3, the values are G2 robust z-score -0.309; inactive. Against PPP2R3A #1, the entry reads G2 robust z-score 0.75; inactive. After knock-down of PPP2R3A #2, the screen gave G2 robust z-score 0.157; inactive. After knock-down of PPP2R3A #3, the screen gave G2 robust z-score 0.106; inactive.

After knock-down of FGG #1, the screen gave G2 robust z-score 3.99; inactive. With knock-down of FGG #2 the results were G2 robust z-score 0.755; inactive. Against FGG #3 the deposit lists G2 robust z-score 2.01; inactive. With knock-down of FBRSL1 #1, the record shows G2 robust z-score -0.112; inactive. With knock-down of FBRSL1 #2, the record shows G2 robust z-score 3.28; inactive. FBRSL1 #3 scored G2 robust z-score -0.728; inactive.

For FBRSL1 #4, the values are G2 robust z-score 0.893; inactive. Against FBRSL1 #5, the entry reads G2 robust z-score -0.117; inactive. Depletion of FBRSL1 #6 came out at: G2 robust z-score -0.837; inactive.

2 entries already listed, sorted by “G2 robust z-score”, ascending.
FBRSL1 #3 | G2 robust z-score: -0.728; outcome: inactive
FBRSL1 #4 | G2 robust z-score: 0.893; outcome: inactive
